Test results as given in PMC9398197.
Construct, isoform or probe ends are uncertain for at least one entry. Where a protein sequence is shown, tags need not be part of it.

Tests used:
[1] = target: T1, MdHHO3-GST (Malus domestica) (UniProt A0A498I6H4); assay: competition with a labelled probe; settings: 50x, 100x, 200x versus labeled P2; EMSA in binding buffer (composition not given), room temperature, dark, 30 min; recombinant protein; protein details: GST (pGEX-4T-1)
T1 sequence (looked up, limits assumed): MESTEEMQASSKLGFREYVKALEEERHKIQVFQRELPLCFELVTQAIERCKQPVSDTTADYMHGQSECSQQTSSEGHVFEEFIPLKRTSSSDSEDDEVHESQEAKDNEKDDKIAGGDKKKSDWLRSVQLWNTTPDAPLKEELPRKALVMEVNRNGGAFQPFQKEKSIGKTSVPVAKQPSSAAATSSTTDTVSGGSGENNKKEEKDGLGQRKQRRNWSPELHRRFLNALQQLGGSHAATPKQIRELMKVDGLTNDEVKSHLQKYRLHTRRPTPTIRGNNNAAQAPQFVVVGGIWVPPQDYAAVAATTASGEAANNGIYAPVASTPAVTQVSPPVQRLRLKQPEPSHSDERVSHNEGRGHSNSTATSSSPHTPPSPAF

[2] = target: T1, MdHHO3-GST (Malus domestica); assay: EMSA; settings: EMSA in binding buffer (composition not given), room temperature, dark, 30 min; recombinant protein; protein details: GST (pGEX-4T-1); label: biotin

Sequence | binding result [1] | binding result [2]
AACTCTTAACGAATCAATGGATGGA (double strand) [MdNRT2.1 promoter P2 unlabeled competitor] | binds | 
AACTCTTAACGAATCAATGGATGGA (double strand) [MdNRT2.1 promoter P2] |  | binds
ATTTCATTAAGATTCTTAGGGAGCG (double strand) [MdHHO3 promoter P1] |  | binds
